In patent US20110059102A1, “Therapeutic Method Targeting Midkine” (NATIONAL UNIVERSITY CORPORATION NAGOYA UNIVERSITY, priority 2009, published 2011) one finds BW data, which are given here for three compounds.

Each structure is given as a SMILES string. Structures can show the parent of a compound that is named as a salt.

The series is described as follows: Body weight, blood urea nitrogen and serum creatinine after 5/6 nephrectomy, drug treatment model. Format: in vivo. Particulars: 2 weeks after nephrectomy; Mdk+/+ mice, oral daily at indicated dose; mean ± SD. The protocol:
Animals and experimental design. Mice deficient in Mdk were generated as described previously (Genes Cells. 3:811-822). After backcrossing of Mdk+/− mice for 14 generations with 129/Sv mice, Mdk+/− mice were mated with each other to generate Mdk^+/+ and Mdk^−/− mice, which were used in this study. Experiments were performed on 8 to 12-week-old female mice weighing 20-25 g that were housed under controlled environmental conditions and maintained with standard food and water. Animal care and experimental procedures were approved by the Animal Experimentation Committee of the Nagoya University Graduate School of Medicine and were conducted according to the Nagoya University Regulations for Experiments. Renal ablation was performed as described previously. Briefly, mice were anesthetized by diethyl ether. The flank region was shaved, and the animals were placed on a heating pad to maintain a constant body temperature (37° C.). Under anesthesia, right flank incisions were made, and the right kidney was removed. Seven days later, mice were anesthetized as above, and two-thirds of the mass of the left kidneys was ablated (Mdk^+/+: 2 weeks, n=13; 4 weeks, n=13; 8 weeks, n=8; Mdk^−/−: 2 weeks, n=10; 4 weeks, n=10; 8 weeks, n=4). After the renal ablation, the flanks were closed in 2 layers with 5-0 silk sutures. […]
Drug treatment model. […] In the present study, we determined the dosage according to previous reports (Hypertension. 13:582-588, J. Cardiovasc. Pharmacol. 40:533-542, Hypertension. 43:841-848). Blood pressure was measured by the tail-cuff method at 2 weeks, as described below under Blood pressure monitoring. […]
Sample collection. […] Serum creatinine, blood urea nitrogen (Mdk^+/+: sham, n=6; 2 weeks, n=10; 4 weeks, n=9; 8 weeks, n=8; Mdk^−/−: sham, n=7; 2 weeks, n=7; 4 weeks, n=6; 8 weeks, n=4), and Ang II concentrations (Mdk^+/+: sham, n=6; 2 weeks, n=6; 4 weeks, n=8; Mdk^−/−: sham, n=6; 2 weeks, n=7; 4 weeks, n=5) were measured by Mitsubishi BCL.
Take `NNc1nncc2ccccc12` [Hydralazine, hydralazine hydrochloride]: the BW is recorded as 18.7 ± 0.7 g.

Take `CCOC(=O)[C@H](CCc1ccccc1)N[C@H]1CS[C@H](c2cccs2)CN(CC(=O)O)C1=O` [Temocapril, temocapril]: the BW stood at 19.7 ± 2.7 g.

`CC1(C)CC(O)CC(C)(C)N1[O]` [Tempol, 4-hydroxy-2,2,6,6-tetramethylpiperidine-N-oxyl] came in with a BW of 21.4 ± 1.6 g.
